According to paper PMC10155811:
No constants are given. Whether binding was seen depends on the method and setting. In cells and extracts the contact can be indirect. Some entries that bind do so weakly or less than the wild type.

By UniProt entry, the sequences of proteins in these tests, tags left out.
UniProt O60566: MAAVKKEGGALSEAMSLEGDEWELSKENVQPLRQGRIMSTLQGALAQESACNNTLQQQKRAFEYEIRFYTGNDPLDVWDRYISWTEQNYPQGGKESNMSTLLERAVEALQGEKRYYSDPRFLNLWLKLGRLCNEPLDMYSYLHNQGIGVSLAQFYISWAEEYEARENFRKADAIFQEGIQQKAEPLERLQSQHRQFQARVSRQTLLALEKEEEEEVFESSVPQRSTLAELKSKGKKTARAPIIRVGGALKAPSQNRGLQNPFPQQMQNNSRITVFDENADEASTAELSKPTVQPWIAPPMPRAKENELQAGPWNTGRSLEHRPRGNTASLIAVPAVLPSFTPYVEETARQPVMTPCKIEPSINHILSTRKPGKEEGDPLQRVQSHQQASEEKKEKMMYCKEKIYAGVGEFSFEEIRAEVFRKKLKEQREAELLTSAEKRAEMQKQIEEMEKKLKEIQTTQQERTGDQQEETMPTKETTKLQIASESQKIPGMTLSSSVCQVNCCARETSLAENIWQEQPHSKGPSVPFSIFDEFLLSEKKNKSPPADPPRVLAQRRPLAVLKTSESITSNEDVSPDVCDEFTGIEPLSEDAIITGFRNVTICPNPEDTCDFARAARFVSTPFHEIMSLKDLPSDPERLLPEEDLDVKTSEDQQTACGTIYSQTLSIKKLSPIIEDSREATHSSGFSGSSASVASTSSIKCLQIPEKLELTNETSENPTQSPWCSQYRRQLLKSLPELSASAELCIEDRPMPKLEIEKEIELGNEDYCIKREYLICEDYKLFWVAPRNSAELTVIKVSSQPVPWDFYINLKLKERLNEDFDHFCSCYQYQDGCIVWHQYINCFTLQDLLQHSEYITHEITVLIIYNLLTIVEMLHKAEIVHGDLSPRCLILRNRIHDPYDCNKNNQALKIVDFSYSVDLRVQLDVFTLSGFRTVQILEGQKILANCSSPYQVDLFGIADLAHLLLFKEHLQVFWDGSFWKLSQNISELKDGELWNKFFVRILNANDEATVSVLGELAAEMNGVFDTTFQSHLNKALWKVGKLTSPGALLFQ
UniProt Q15172: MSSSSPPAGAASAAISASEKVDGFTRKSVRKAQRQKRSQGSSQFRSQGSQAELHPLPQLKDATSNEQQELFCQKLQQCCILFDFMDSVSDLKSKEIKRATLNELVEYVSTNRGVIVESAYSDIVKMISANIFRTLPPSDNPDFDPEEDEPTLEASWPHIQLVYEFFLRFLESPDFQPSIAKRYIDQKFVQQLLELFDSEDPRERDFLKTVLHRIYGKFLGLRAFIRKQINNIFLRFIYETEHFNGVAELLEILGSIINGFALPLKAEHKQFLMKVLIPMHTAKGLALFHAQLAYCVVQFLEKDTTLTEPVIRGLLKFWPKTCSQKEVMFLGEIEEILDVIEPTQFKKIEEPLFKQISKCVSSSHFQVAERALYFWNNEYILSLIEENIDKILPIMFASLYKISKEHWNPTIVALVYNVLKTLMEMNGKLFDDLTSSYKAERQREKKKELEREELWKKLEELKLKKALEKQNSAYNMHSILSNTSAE

Molecular target: YFP-BubR1 (human) (UniProt O60566)
Experiment: co-IP; YFP-tagged Bub1 or BubR1 proteins precipitated with GFP-Trap agarose beads from lysates of nocodazole-arrested mitotic HeLa cells, low-salt buffer (Kruse et al., 2013); quantitative western blot for B56α and YFP

For “PP2A-B56 (detected as B56α) (from UniProt Q15172 1-486)”, the binding was “binds”.
